Values from PubChem BioAssay AID720505 (Drosophila RNAi Screening Center, 2013).
In all, the deposit lists about 20,000 reagents; below is an unselected part of those that have a named target and a result. Of all reagents, about 2,100 (10%) are marked active. 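Raw plate signals without normalisation; calls rest on control-based scores that were not deposited; replicate 2 separates called from uncalled poorly.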 Names joined by + are all predicted targets of the reagent. Not given: the amount of reagent, the time to read-out.

- Purpose: 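Genes needed for store-operated calcium entry in fly cells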 (primary screen)
- System: Drosophila S2R+ cells
- Knock-down reagent: long dsRNA against Drosophila genes
- Conditions: thapsigargin (2 µM) in calcium-free buffer to empty internal stores, then 2 mM calcium added back
- Measured: 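Stores emptied by 2 µM thapsigargin without calcium, then 2 mM calcium re-added; fluo-4 fluorescence followed by FLIPR in 384-well plates, per-well averaged endpoint, raw; two screen passes, some wells retested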
- Direction: calcium signal: higher = more calcium entry after store depletion
- Hit rule: 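About 1500 genes called as lowering calcium entry, by varying amounts, judged against per-plate control wells with STIM1 as positive and Rho1 as negative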
- Calls: active = called as lowering calcium entry; inactive = not called

For Ork1 (Open rectifier K[+] channel 1) [DRSC20266] the deposit lists calcium signal, replicate 1 = 66.8; calcium signal, replicate 2 = 62.7; active.
Depletion of CAH15 (Carbonic anhydrase 15) [DRSC04534] gave: calcium signal, replicate 1 = 172; calcium signal, replicate 2 = 96.7; inactive.
Depletion of CG6236 [DRSC15999] resulted in: calcium signal, replicate 1 = 116; calcium signal, replicate 2 = 107; inactive.
Depletion of Vps2 (Vacuolar protein sorting 2) [DRSC14886] resulted in: calcium signal, replicate 1 = 97.3; calcium signal, replicate 2 = 181; inactive.
Knock-down of CG1552 [DRSC19665] gave: calcium signal, replicate 1 = 125; calcium signal, replicate 2 = 92.7; inactive.
Knock-down of Tsen2 (tRNA splicing endonuclease subunit 2) [DRSC01557] came out at: calcium signal, replicate 1 = 112; calcium signal, replicate 2 = 99.2; inactive.
Against CG32453 [DRSC21673], the entry reads calcium signal, replicate 1 = 171; calcium signal, replicate 2 = 89.5; inactive.
Knock-down of Ogdh (Oxoglutarate dehydrogenase) [DRSC09854] resulted in: calcium signal, replicate 1 = 101; calcium signal, replicate 2 = 107; inactive.
Against Ogdh (Oxoglutarate dehydrogenase) [DRSC09855], the values are calcium signal, replicate 1 = 79.6; calcium signal, replicate 2 = 145; inactive.
For CG3502 + CG9863 [DRSC04578], the values are calcium signal, replicate 1 = 96.3; calcium signal, replicate 2 = 224; inactive.
With knock-down of sbm (sobremesa) [DRSC20185] the results were calcium signal, replicate 1 = 100; calcium signal, replicate 2 = 129; inactive.
Silencing of CG9270 [DRSC03182] came out at: calcium signal, replicate 1 = 92.3; calcium signal, replicate 2 = 140; inactive.

Quoted from the listing, 2 entries:
CG32453 [DRSC21673]: calcium signal, replicate 1 = 171; calcium signal, replicate 2 = 89.5; Call = inactive
Ogdh (Oxoglutarate dehydrogenase) [DRSC09854]: calcium signal, replicate 1 = 101; calcium signal, replicate 2 = 107; Call = inactive
